Consider 1 molecule from EP4621028A1, “FLUORESCENCE RECOVERY IN NANOGRAPHENE” (Max-Planck-Gesellschaft zur Förderung der Wissenschaften …, priority 2024, dated 2025).

A short description of data set [1]: Fluorescence deactivation by 561 nm excitation beam and reactivation by 775 nm STED beam (Example 11). Type of data set: physicochemical.
The nature of data set [2]: Fluorescence retention in STED microscopy (Example 12). In kind it is physicochemical.

Turning to `Cc1cc(C)c(-c2c3cccc4c5ccc6ccc7c(-c8c(C)cc(C)cc8C)c8cccc9c%10ccc%11ccc2c2c%11c%10c%10c(c89)c7c6c5c%10c2c34)c(C)c1` [DBOV-Mes, 6,14-dimesityldibenzo[hi,st]ovalene], the reduction in fluorescence in data set [1] (7 cycles, in the absence of reactivation (comparison)) is given as 30%; in data set [1] (after 7 cycles of repeated short-term deactivation and reactivation), “no significant reduction in fluorescence”. For the same molecule, the “slope of lnln-ln plot of fluorescence ratio vs power density of excitation laser light” value in data set [1] (561 nm excitation only, region of few images (Figure 7)) stood at 2. Moreover, the “fluorescence recovered by reactivation beam” value in data set [1] (775 nm (600 mW) doughnut-shape STED beam, 5 frames, total reactivation time 5.614 s) is listed as “all fluorescence was recovered”. Also, in data set [1] (775 nm STED laser beam (Figure 8)), the “slope of lnln-ln plot of fluorescence reactivation rate vs intensity of recovery light” value is “about 1”. The fluorescence intensity quenched in data set [1] (after 100 consecutive frames of confocal imaging, 561 nm (0.22 mW) excitation beam) is listed as about 50%. The same molecule came in with a maximum fluorescence retention in data set [2] (150 consecutive images, 561 nm excitation beam with donut-shaped 775 nm STED beam as recovery light) of 62%. In data set [2] (Gaussian-shaped rather than donut-shaped recovery beam coinciding with excitation beam (experiment not shown)), the fluorescence retention result was “full fluorescence retention”.
